Drug screen on melanoma cell lines: apoptosis marker

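Human melanoma cell lines in 1,536-well plates were treated with a pair of drugs for 72 h, then fixed, stained and imaged. The read-out is the fraction of cleaved-PARP-positive nuclei, in % of that fraction in the DMSO control; 200 means twice the control level of this apoptosis marker. Concentrations were fixed for each drug; these are the higher of two levels. The file gives one value for each pair and line, without errors, so small differences may be noise. The marker varies much from line to line, for technical or biological reasons.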 An unselected part of the screen is shown. A dash means that no value is listed here.

Compounds and concentrations:
tamatinib, 2 µM: COc1cc(Nc2ncc(F)c(Nc3ccc4c(n3)NC(=O)C(C)(C)O4)n2)cc(OC)c1OC
vincristine, 0.0005 µM: CC[C@]1(O)C[C@H]2CN(CCc3c([nH]c4ccccc34)[C@@](C(=O)OC)(c3cc4c(cc3OC)N(C=O)[C@H]3[C@@](O)(C(=O)OC)[C@H](OC(C)=O)[C@]5(CC)C=CCN6CC[C@]43[C@@H]65)C2)C1
dorsomorphin, 2 µM: c1cc(-c2cnn3cc(-c4ccc(OCCN5CCCCC5)cc4)cnc23)ccn1
ENMD-2076, 0.2 µM: Cc1cc(Nc2cc(N3CCN(C)CC3)nc(/C=C/c3ccccc3)n2)n[nH]1
STA-4783, 0.03 µM: CN(NC(=O)CC(=O)NN(C)C(=S)c1ccccc1)C(=S)c1ccccc1
PF-562271, 0.4 µM: CN(c1ncccc1CNc1nc(Nc2ccc3c(c2)CC(=O)N3)ncc1C(F)(F)F)S(C)(=O)=O
GW2580, 5 µM: COc1ccc(COc2ccc(Cc3cnc(N)nc3N)cc2OC)cc1
NVP-BEZ235, 0.02 µM: Cn1c(=O)n(-c2ccc(C(C)(C)C#N)cc2)c2c3cc(-c4cnc5ccccc5c4)ccc3ncc21
NVP-TAE684, 0.4 µM: COc1cc(N2CCC(N3CCN(C)CC3)CC2)ccc1Nc1ncc(Cl)c(Nc2ccccc2S(=O)(=O)C(C)C)n1
temozolomide, 10 µM: Cn1nnc2c(C(N)=O)ncn2c1=O
vorinostat, 0.4 µM: O=C(CCCCCCC(=O)Nc1ccccc1)NO
crizotinib, 1 µM: C[C@@H](Oc1cc(-c2cnn(C3CCNCC3)c2)cnc1N)c1c(Cl)ccc(F)c1Cl
indole-3-carbinol, 4 µM: OCc1c[nH]c2ccccc12
bexarotene, 10 µM: C=C(c1ccc(C(=O)O)cc1)c1cc2c(cc1C)C(C)(C)CCC2(C)C
bortezomib, 0.005 µM: CC(C)C[C@H](NC(=O)[C@H](Cc1ccccc1)NC(=O)c1cnccn1)B(O)O
CHIR-265, 0.4 µM: Cn1c(Nc2ccc(C(F)(F)F)cc2)nc2cc(Oc3ccnc(-c4ncc(C(F)(F)F)[nH]4)c3)ccc21
docetaxel, 0.0005 µM: CC(=O)O[C@@]12CO[C@@H]1C[C@H](O)[C@@]1(C)C(=O)[C@H](O)C3=C(C)[C@@H](OC(=O)[C@H](O)[C@@H](NC(=O)OC(C)(C)C)c4ccccc4)C[C@@](O)([C@@H](OC(=O)c4ccccc4)[C@H]21)C3(C)C
SNS-314, 0.004 µM: O=C(Nc1cccc(Cl)c1)Nc1ncc(CCNc2ncnc3ccsc23)s1

| # | Pair | SK-MEL-5 | MZ2-MEL | WM3526 | C32 | WM1716 | UACC-257 | WM3619 | LB2518-MEL | RVH-421 | RPMI-7951 | SK-MEL-30 | G-361 |
|---|---|---|---|---|---|---|---|---|---|---|---|---|---|
| 1 | vincristine + dorsomorphin | 635 | 374 | 2360 | 1130 | 1340 | 134 | 205 | 121 | 85.5 | 321 | 652 | 396 |
| 2 | bortezomib + indole-3-carbinol | 3930 | 22400 | 3590 | 1250 | 9340 | 95.9 | 1730 | 2740 | 959 | 1020 | 450 | 6570 |
| 3 | NVP-BEZ235 + GW2580 | 189 | 144 | 122 | 76.2 | 32.8 | 63.5 | 95.8 | 102 | 152 | 122 | 160 | 249 |
| 4 | vorinostat + docetaxel | 468 | 693 | 2020 | 116 | 649 | 287 | 189 | 926 | 53.5 | 369 | 1010 | 1060 |
| 5 | docetaxel + NVP-BEZ235 | 613 | 383 | 1090 | 2380 | 980 | 196 | 224 | 379 | 142 | 286 | 198 | 869 |
| 6 | NVP-BEZ235 + CHIR-265 | 1730 | 315 | 831 | 196 | 197 | 24.4 | 290 | 704 | 271 | 140 | 148 | 2950 |
| 7 | ENMD-2076 + bortezomib | 1330 | 5190 | 1450 | 419 | 12400 | 128 | 1510 | 4000 | 953 | 691 | 1120 | 11600 |
| 8 | CHIR-265 + vorinostat | 1840 | 166 | 662 | 290 | 109 | 152 | 236 | 566 | 74.6 | 175 | 429 | 695 |
| 9 | crizotinib + dorsomorphin | 169 | 126 | 286 | 143 | 42.3 | 86.5 | 172 | 249 | 100 | 54.5 | 178 | 330 |
| 10 | GW2580 + STA-4783 | 387 | 53.1 | 97.0 | 1540 | 245 | 46.3 | 677 | 176 | 70.3 | 154 | 29.8 | 338 |
| 11 | dorsomorphin + NVP-BEZ235 | 92.4 | 202 | 212 | 267 | 31.0 | 37.8 | 151 | 184 | 58.5 | 57.1 | 377 | 377 |
| 12 | ENMD-2076 + dorsomorphin | 67.0 | 74.6 | 147 | 114 | 60.5 | 39.3 | 117 | 214 | 92.5 | 56.6 | 97.1 | 69.8 |
| 13 | docetaxel + GW2580 | 657 | 497 | 2800 | 96.8 | 695 | 94.1 | 267 | 246 | 79.1 | 832 | 702 | 1690 |
| 14 | ENMD-2076 + vincristine | 298 | 376 | 274 | 176 | 145 | 69.7 | 167 | 143 | 197 | 155 | 354 | 57.5 |
| 15 | SNS-314 + tamatinib | 222 | 249 | 384 | 85.8 | 295 | 201 | 166 | 146 | 74.2 | 466 | 65.8 | 202 |
| 16 | tamatinib + GW2580 | 196 | 90.0 | 72.8 | 72.8 | 39.6 | 74.8 | 194 | 117 | 40.3 | 226 | 287 | 108 |
| 17 | bexarotene + NVP-BEZ235 | 109 | 256 | 273 | 102 | 87.4 | 39.8 | 144 | 83.7 | 83.4 | 122 | 240 | 134 |
| 18 | temozolomide + NVP-TAE684 | 123 | 75.9 | 134 | 139 | 417 | 22.4 | 125 | 141 | 155 | 139 | 186 | 135 |
| 19 | SNS-314 + NVP-TAE684 | 177 | 152 | 81.2 | 118 | 141 | 19.6 | 144 | 182 | 90.1 | 139 | 88.8 | 52.8 |
| 20 | CHIR-265 + GW2580 | 570 | 119 | 247 | 118 | 148 | 74.9 | 145 | 154 | 283 | 109 | 202 | 325 |
| 21 | PF-562271 + NVP-TAE684 | 148 | 193 | 134 | 279 | 64.9 | 94.8 | 110 | 282 | 144 | 68.0 | 315 | 149 |
| 22 | PF-562271 + crizotinib | 11.9 | 123 | 85.7 | 193 | 90.1 | 239 | 95.0 | 91.2 | 46.3 | 66.0 | 81.4 | 115 |
| 23 | bexarotene + vincristine | 71.8 | - | 316 | 258 | 203 | 522 | 165 | - | 135 | 366 | 265 | 141 |
| 24 | indole-3-carbinol + dorsomorphin | 99.8 | 80.6 | 74.9 | 87.1 | 61.6 | 124 | 127 | 62.8 | 73.3 | 37.3 | 111 | 174 |
| 25 | vincristine + GW2580 | 116 | 128 | 154 | 74.0 | 252 | 63.9 | 98.7 | 91.1 | 53.8 | 140 | 271 | 74.6 |
| 26 | SNS-314 + dorsomorphin | 118 | 183 | 87.1 | 144 | 153 | 76.8 | 119 | 228 | 109 | 117 | 81.7 | 53.5 |
| 27 | temozolomide + SNS-314 | 44.3 | 122 | 45.2 | 163 | 437 | 42.9 | 210 | 138 | 122 | 194 | 38.8 | 196 |
| 28 | STA-4783 + temozolomide | 352 | 88.4 | 112 | 5540 | 370 | 80.3 | 1090 | 541 | 81.6 | 36.6 | 125 | 995 |

The last 2 entries again:

Pair,SK-MEL-5,MZ2-MEL,WM3526,C32,WM1716,UACC-257,WM3619,LB2518-MEL,RVH-421,RPMI-7951,SK-MEL-30,G-361
temozolomide + SNS-314,44.3,122,45.2,163,437,42.9,210,138,122,194,38.8,196
STA-4783 + temozolomide,352,88.4,112,5540,370,80.3,1090,541,81.6,36.6,125,995

Data from the primary screen of doi:10.1371/journal.pone.0140310, rounded.